These are yes or no findings as the source states them, for the method shown. In cells and extracts the contact can be indirect. Some results given as binding are weak or reduced against the parent protein; the word gives no strength. Sequences can lack the tags named with a protein.
Target: FLAG-NBS1 WT (UniProt O60934)
Assay: co-IP; GFP-tagged Peli1 and Flag-tagged NBS1 constructs cotransfected, followed by co-immunoprecipitation (Supplementary Fig. 7); cells and precipitating antibody not told in the text shown

The chains behind the UniProt entries cited, without tags or fusion partners.
UniProt O60934: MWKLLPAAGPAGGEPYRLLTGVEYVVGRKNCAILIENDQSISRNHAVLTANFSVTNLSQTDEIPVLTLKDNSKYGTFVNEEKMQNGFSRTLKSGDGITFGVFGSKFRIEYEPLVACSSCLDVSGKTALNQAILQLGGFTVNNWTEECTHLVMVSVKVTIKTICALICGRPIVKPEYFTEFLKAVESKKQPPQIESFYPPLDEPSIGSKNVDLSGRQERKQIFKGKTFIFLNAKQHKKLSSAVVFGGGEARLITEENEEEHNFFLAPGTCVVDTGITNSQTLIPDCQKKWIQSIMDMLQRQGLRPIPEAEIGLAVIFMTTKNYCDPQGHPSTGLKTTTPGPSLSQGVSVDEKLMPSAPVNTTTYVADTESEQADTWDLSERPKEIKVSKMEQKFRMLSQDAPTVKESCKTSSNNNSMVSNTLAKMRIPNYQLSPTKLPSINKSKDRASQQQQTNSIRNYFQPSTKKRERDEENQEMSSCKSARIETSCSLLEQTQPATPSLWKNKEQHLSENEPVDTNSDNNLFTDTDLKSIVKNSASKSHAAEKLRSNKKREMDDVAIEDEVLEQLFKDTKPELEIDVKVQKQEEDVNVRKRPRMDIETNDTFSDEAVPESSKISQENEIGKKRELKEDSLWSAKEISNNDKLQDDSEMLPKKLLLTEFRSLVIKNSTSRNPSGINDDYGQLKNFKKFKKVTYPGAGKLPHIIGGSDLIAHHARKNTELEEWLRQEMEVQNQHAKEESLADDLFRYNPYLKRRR

- binding: binds
B1: GFP-Peli1 ΔC (domain or fragment, UniProt Q96FA3 1-280)
chain: MFSPDQENHPSKAPVKYGELIVLGYNGSLPNGDRGRRKSRFALFKRPKANGVKPSTVHIACTPQAAKAISNKDQHSISYTLSRAQTVVVEYTHDSNTDMFQIGRSTESPIDFVVTDTVPGSQSNSDTQSVQSTISRFACRIICERNPPFTARIYAAGFDSSKNIFLGEKAAKWKTSDGQMDGLTTNGVLVMHPRNGFTEDSKPGIWREISVCGNVFSLRETRSAQQRGKMVEIETNQLQDGSLIDLCGATLLWRTAEGLSHTPTVKHLEALRQEINAARP
